The text below walks through data of PMC10953581.

The chains behind the UniProt entries cited, without tags or fusion partners. Where a name states a change or a piece, a line headed by the entry shows the natural chain unless it says otherwise.
UniProt P34897: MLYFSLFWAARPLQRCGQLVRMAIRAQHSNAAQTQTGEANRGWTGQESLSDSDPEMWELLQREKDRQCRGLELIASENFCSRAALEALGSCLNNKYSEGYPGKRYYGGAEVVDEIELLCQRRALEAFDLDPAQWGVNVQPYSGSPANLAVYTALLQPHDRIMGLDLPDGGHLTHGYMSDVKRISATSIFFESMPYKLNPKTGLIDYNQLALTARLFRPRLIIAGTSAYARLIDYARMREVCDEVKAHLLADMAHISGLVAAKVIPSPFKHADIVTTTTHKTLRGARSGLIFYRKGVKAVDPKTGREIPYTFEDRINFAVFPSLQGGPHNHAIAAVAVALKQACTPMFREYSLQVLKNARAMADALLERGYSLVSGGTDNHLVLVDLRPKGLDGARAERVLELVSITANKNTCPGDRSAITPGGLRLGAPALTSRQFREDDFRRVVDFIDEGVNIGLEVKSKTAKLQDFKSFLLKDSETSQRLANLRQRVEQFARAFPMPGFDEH

The target in series [1] is human SUMO-SHMT2 (Homo sapiens) (UniProt P34897). Description: competition with a labelled probe. The conditions noted are these: RNA EMSA (LightShift kit): 10 pmol biotin-RNA, 6 ug protein, 1X EMSA binding buffer, 5% glycerol, 0.1 mg/mL tRNA, 20 uL, 30 min, room temperature, salt and pH not stated, recombinant protein, protein details: SUMO. (Mobility shift assays separate free from complexed probe on a gel.)

For series [2] the target is unchanged. The series is described as follows: EMSA. To be noted: RNA EMSA (LightShift kit): 10 pmol biotin-RNA, 6 ug protein, 1X EMSA binding buffer, 5% glycerol, 0.1 mg/mL tRNA, 20 uL, 30 min, room temperature; salt and pH not stated; recombinant protein; protein details: SUMO; label: 5' biotin.
Series [3] has as its system SUMO alone. The series is described as follows: EMSA. The conditions noted are these: RNA EMSA (LightShift kit): 10 pmol biotin-RNA, 6 ug protein, 1X EMSA binding buffer, 5% glycerol, 0.1 mg/mL tRNA, 20 uL, 30 min, room temperature; salt and pH not stated; recombinant protein; protein details: SUMO; label: 5' biotin.

Construct, isoform or probe ends are uncertain for at least one entry. For some assays here: No signal at the amounts used counts as a negative. For some assays here: At least one verdict rests on a figure or table, not on a statement of the authors.

As for “AGGAAAGCGGGGAAAGGAGGAA [201-222 unlabeled]”, the binding result in series [1] (100-fold excess over labeled 201-222) is reported as “binds”. On to CCUCCGGAUCGAUGUGCUGCUGU [380-402], for which, in series [2], the binding result is listed as “no binding”.

As to CGGGAACCGUCCCCCGCGCGCA [22-43], in series [2], the binding result is “no binding”. As for “GAGAGAAGAGGGAACGAGCAAGGGA [176-200 unlabeled]”, the binding result in series [1] (100-fold excess over labeled 176-200) was “binds”. Regarding GCGGCGGCAGGCCUAGCAGCA [1-21], the binding result in series [2] is on record as “no binding”. Consider “GGAAACGAACGAGGGGGAGGGA [223-244 unlabeled]”, for which the binding result in series [1] (100-fold excess over labeled 223-244) is “binds”. For the sequence GGACCAAGCCCCUUCAGCUUCUC [357-379], in series [2], the binding result was “no binding”.

In the case of “GGACGGGUAGGGGCGGGAGGUA [69-90 unlabeled]”, in series [1] (100-fold excess over labeled 69-90), the binding result was “binds”. As for GGACGGGUAGGGGCGGGAGGUA [69-90], the binding result in series [3] is “no binding”.

As for GGCGGCAGCGGCAGCGGAAG [425-444], in series [2], the binding result is “no binding”.

With GGGGCGCGGCUCCGCGUGCCAGUU [91-114], the binding result in series [2] is “no binding”.

With GGGUGCCCGCGCGUCACGUG [115-134], the binding result in series [2] was “no binding”.

Regarding GGUCCCUGUUUUGGA [245-259], the binding result in series [2] is on record as “no binding”. Regarding GUGAGGAAGGAGGCGGAGGUC [135-155], in series [2], the binding result was “no binding”. On the same count and under the same terms, the result for UAACCCGUGAGGAGGCGGCGGC [403-424] reads “no binding”. Turning to “UGAGUUUCGAAGGAGGGGGG [156-175 unlabeled]”, the binding result in series [1] (100-fold excess over labeled 156-175) is listed as “binds”. Regarding UGCGCGCGCCCCUGAAGCGCCUGGG [44-68], the binding result in series [2] is “no binding”.
